Test results: patent US12491217B2, “Compositions and methods for promoting healthy neural development in an unborn baby” (The Regents of the University of California, priority 2019, dated 2025)

Experiment: Metabolomics of fetal brain at E14.5
Assay type: in vivo, C57Bl/6J mice
Conditions: E14.5 fetal brain metabolite level; for fold of change ABX/SPF: ANOVA contrast ABX vs SPF; for fold of change GF/ABX: ANOVA contrast GF vs ABX; for fold of change GF/SPF: ANOVA contrast GF vs SPF; for fold of change GF/Sp: ANOVA contrast GF vs Sp; for fold of change Sp/ABX: ANOVA contrast Sp vs ABX; for fold of change Sp/SPF: ANOVA contrast Sp vs SPF

SMILES	fold of change ABX/SPF	fold of change GF/ABX	fold of change GF/SPF	fold of change GF/Sp	fold of change Sp/ABX	fold of change Sp/SPF
CC/C=C\C/C=C\C/C=C\CCCCCCCCCC(=O)O[C@H](COC(=O)CCCCCCCCCCCCCCC)COP(=O)([O-])OCC[N+](C)(C)C [compound 1841]	0.97	0.96	0.93	1.14	0.84	0.82
CCCCC/C=C\C/C=C\C/C=C\C/C=C\CCCC(=O)O[C@H](COC(=O)CCCCCCCCCCCCCCC)COP(=O)([O-])OCC[N+](C)(C)C [compound 1845]	0.82	1.02	0.84	0.95	1.08	0.89
CC/C=C\C/C=C\C/C=C\C/C=C\C/C=C\C/C=C\CCC(=O)O[C@H](COC(=O)CCCCCCCCCCCCCCC)COP(=O)([O-])OCC[N+](C)(C)C [compound 1851]	0.78	0.85	0.66	0.87	0.97	0.76
CCCCCCCCCCCCCCCCCC(=O)OCC(COP(=O)([O-])OCC[N+](C)(C)C)OC(=O)CCCCCCCCCCCCCCCCC (stereo not drawn) [compound 1866]	0.56	0.79	0.44	0.66	1.19	0.66
CCCCCCCCC=CCCCCCCCC(=O)OC(COC(=O)CCCCCCCCCCCCCCCCC)COP(=O)([O-])OCC[N+](C)(C)C (stereo not drawn) [compound 1867]	0.84	0.93	0.79	0.90	1.04	0.88
CCCCCC=CCC=CCCCCCCCC(=O)OC(COC(=O)CCCCCCCCCCCCCCCCC)COP(=O)([O-])OCC[N+](C)(C)C (stereo not drawn) [compound 1870]	0.94	1.05	0.99	1.16	0.90	0.85
CCCCC/C=C\C/C=C\C/C=C\C/C=C\CCCC(=O)O[C@H](COC(=O)CCCCCCCCCCCCCCCCC)COP(=O)([O-])OCC[N+](C)(C)C [compound 1878]	0.82	0.93	0.77	0.90	1.04	0.86
CC/C=C\C/C=C\C/C=C\C/C=C\C/C=C\C/C=C\CCC(=O)O[C@H](COC(=O)CCCCCCCCCCCCCCCCC)COP(=O)([O-])OCC[N+](C)(C)C [compound 1884]	0.83	0.84	0.69	0.88	0.95	0.79
CCCCCCCCC=CCCCCCCCC(=O)OCC(COP(=O)([O-])OCC[N+](C)(C)C)OC(=O)CCCCCCCC=CCCCCCCCC (stereo not drawn) [compound 1889]	1.01	0.90	0.91	0.95	0.95	0.97
CCCCC/C=C\C/C=C\CCCCCCCC(=O)O[C@H](COC(=O)CCCCCCC/C=C\CCCCCCCC)COP(=O)([O-])OCC[N+](C)(C)C [compound 1892]	1.11	1.06	1.17	1.46	0.73	0.81
CCC=CCC=CCC=CCC=CCC=CCC=CCCC(=O)OC(COC(=O)CCCCCCCC=CCCCCCCCC)COP(=O)([O-])OCC[N+](C)(C)C (stereo not drawn) [compound 1902]	0.86	0.77	0.67	0.89	0.86	0.75
CCCCC/C=C\C/C=C\CCCCCCCC(=O)OCC(COP(=O)([O-])OCC[N+](C)(C)C)OC(=O)CCCCCCC/C=C\C/C=C\CCCCC (stereo not drawn) [compound 1903]	0.93	1.02	0.94	1.73	0.59	0.54
CCCCC/C=C\C/C=C\C/C=C\C/C=C\CCCC(=O)OC(COC(=O)CCCCCCC/C=C\C/C=C\CCCCC)COP(=O)([O-])OCC[N+](C)(C)C (stereo not drawn) [compound 1907]	1.00	1.00	0.99	1.28	0.78	0.78
CCCCCCCCCCCCCCCC(=O)OC[C@H](COP(=O)(O)OCCN)OC(=O)CCCCCCCCCCCCCCC [compound 1945]	0.90	0.95	0.85	0.95	1.00	0.90
CCCCCCCCCCCCCCCCCC(=O)OC(COC(=O)CCCCCCCCCCCCCCC)COP(=O)(O)OCCN (stereo not drawn) [compound 1948]	0.78	0.98	0.76	0.89	1.10	0.86
CCCCCCCC/C=C\CCCCCCCC(=O)O[C@H](COC(=O)CCCCCCCCCCCCCCC)COP(=O)(O)OCCN [compound 1949]	0.91	0.90	0.82	0.94	0.97	0.88
CCCCC/C=C\C/C=C\CCCCCCCC(=O)OC(COC(=O)CCCCCCCCCCCCCCC)COP(=O)(O)OCCN (stereo not drawn) [compound 1950]	1.10	0.90	0.99	1.12	0.81	0.89
CCCCCC=CCC=CCC=CCC=CCCCC(=O)OC(COC(=O)CCCCCCCCCCCCCCC)COP(=O)(O)OCCN (stereo not drawn) [compound 1953]	0.92	0.93	0.86	1.03	0.91	0.83
CC/C=C\C/C=C\C/C=C\C/C=C\C/C=C\C/C=C\CCC(=O)OC(COC(=O)CCCCCCCCCCCCCCC)COP(=O)(O)OCCN (stereo not drawn) [compound 1955]	0.94	0.79	0.74	0.88	0.90	0.85
CCCCCCCC/C=C\CCCCCCCC(=O)O[C@H](COC(=O)CCCCCCCCCCCCCCCCC)COP(=O)(O)OCCN [compound 1962]	0.85	0.89	0.75	0.89	0.99	0.84
CCCCCC=CCC=CCC=CCC=CCCCC(=O)OC(COC(=O)CCCCCCCCCCCCCCCCC)COP(=O)(O)OCCN (stereo not drawn) [compound 1970]	0.90	0.90	0.81	0.94	0.95	0.85
CC/C=C\C/C=C\C/C=C\C/C=C\C/C=C\C/C=C\CCC(=O)O[C@H](COC(=O)CCCCCCCCCCCCCCCCC)COP(=O)(O)OCCN [compound 1974]	0.88	0.79	0.69	0.87	0.90	0.80
CCCCCCCCC=CCCCCCCCC(=O)OCC(COP(=O)(O)OCCN)OC(=O)CCCCCCCC=CCCCCCCCC (stereo not drawn) [compound 1975]	1.05	0.89	0.94	1.05	0.85	0.89
CCCCC/C=C\C/C=C\CCCCCCCC(=O)O[C@H](COC(=O)CCCCCCC/C=C\CCCCCCCC)COP(=O)(O)OCCN [compound 1976]	1.18	0.90	1.06	1.38	0.66	0.77
CCCCC/C=C\C/C=C\C/C=C\C/C=C\CCCC(=O)O[C@H](COC(=O)CCCCCCC/C=C\CCCCCCCC)COP(=O)(O)OCCN [compound 1979]	1.06	0.90	0.95	1.09	0.82	0.87
CC/C=C\C/C=C\C/C=C\C/C=C\C/C=C\C/C=C\CCC(=O)O[C@H](COC(=O)CCCCCCC/C=C\CCCCCCCC)COP(=O)(O)OCCN [compound 1982]	0.99	0.77	0.76	0.87	0.88	0.86
CCCCC/C=C\C/C=C\C/C=C\C/C=C\CCCC(=O)OC(COC(=O)CCCCCCC/C=C\C/C=C\CCCCC)COP(=O)(O)OCCN (stereo not drawn) [compound 1985]	1.15	0.92	1.06	1.42	0.65	0.74
CCCCCCCCC=CCCCCCCCC(=O)OC(COC(=O)CCCCCCCCCCCCCCC)COP(=O)(O)OCC(N)C(=O)O (stereo not drawn) [compound 2016]	0.93	0.99	0.92	1.02	0.97	0.90
